{
  "source": "patent US20250152742A1",
  "about": "“COMPOSITIONS AND METHODS FOR NEUROLOGICAL DISEASES” (Trames Bio, Inc., priority 2022, published 2025)",
  "tested_on": "HEK293T cells",
  "format": "cell-based",
  "conditions": "flow cytometry; for Normalized HA %: % HA-tag positive cells normalized to SEQ ID NO: 33 control; for Normalized HA MFI: anti-HA fluorescence intensity normalized to SEQ ID NO: 33 control",
  "data": [
    {"molecule": "CODA335: engineered receptor: L131T in SEQ ID NO: 33 (protein, synthetic sequence of chimeric LGIC) MRCSPGGVWLALAASLLHVSLQGEFQRKLYKELVKNYNPLERPVANDSQPLTVYFSLSLLQIMDVDEKNQVLTTNIWLQMSWTDHYLQWNVSEYPGVKTVRFPDGQIWKPDILLYNSADERFDATFHTNVTVNSSGHCQYLPPGIFKSSCPMDLKNFPMDVQTCKLKFGSWSYGGWSLDLQMQEADISGYIPNGEWDLVGIPGKRSERFYECCKEPYPDVTFTVTMRRRMGYYLIQMYIPSLLIVILSWISFWINMDAAPARVGLGITTVLTMTTQSSGSRASLPKVSYVKAIDIWMAVCLLFVFSALLEYAAVNFVSRQHKELLRFRRKRRHHKSPMLNLFQEDEAGEGRFNFSAYGMGPACLQAKDGISVKGANNSNTTNPPPAPSKSPEEMRKLFIQRAKKIDKISRIGFPMAFLIFNMFYWIIYKIVRREDVHNQ", "values": [
      {"measurement": "Normalized HA %", "result": 2.00},
      {"measurement": "Normalized HA MFI", "result": 0.88}
    ]},
    {"molecule": "CODA339: engineered receptor: L131D in SEQ ID NO: 33 (protein, synthetic sequence of chimeric LGIC) MRCSPGGVWLALAASLLHVSLQGEFQRKLYKELVKNYNPLERPVANDSQPLTVYFSLSLLQIMDVDEKNQVLTTNIWLQMSWTDHYLQWNVSEYPGVKTVRFPDGQIWKPDILLYNSADERFDATFHTNVDVNSSGHCQYLPPGIFKSSCPMDLKNFPMDVQTCKLKFGSWSYGGWSLDLQMQEADISGYIPNGEWDLVGIPGKRSERFYECCKEPYPDVTFTVTMRRRMGYYLIQMYIPSLLIVILSWISFWINMDAAPARVGLGITTVLTMTTQSSGSRASLPKVSYVKAIDIWMAVCLLFVFSALLEYAAVNFVSRQHKELLRFRRKRRHHKSPMLNLFQEDEAGEGRFNFSAYGMGPACLQAKDGISVKGANNSNTTNPPPAPSKSPEEMRKLFIQRAKKIDKISRIGFPMAFLIFNMFYWIIYKIVRREDVHNQ", "values": [
      {"measurement": "Normalized HA %", "result": 1.59},
      {"measurement": "Normalized HA MFI", "result": 0.79}
    ]},
    {"molecule": "CODA342: engineered receptor: L131R in SEQ ID NO: 33 (protein, synthetic sequence of chimeric LGIC) MRCSPGGVWLALAASLLHVSLQGEFQRKLYKELVKNYNPLERPVANDSQPLTVYFSLSLLQIMDVDEKNQVLTTNIWLQMSWTDHYLQWNVSEYPGVKTVRFPDGQIWKPDILLYNSADERFDATFHTNVRVNSSGHCQYLPPGIFKSSCPMDLKNFPMDVQTCKLKFGSWSYGGWSLDLQMQEADISGYIPNGEWDLVGIPGKRSERFYECCKEPYPDVTFTVTMRRRMGYYLIQMYIPSLLIVILSWISFWINMDAAPARVGLGITTVLTMTTQSSGSRASLPKVSYVKAIDIWMAVCLLFVFSALLEYAAVNFVSRQHKELLRFRRKRRHHKSPMLNLFQEDEAGEGRFNFSAYGMGPACLQAKDGISVKGANNSNTTNPPPAPSKSPEEMRKLFIQRAKKIDKISRIGFPMAFLIFNMFYWIIYKIVRREDVHNQ", "values": [
      {"measurement": "Normalized HA %", "result": 1.83},
      {"measurement": "Normalized HA MFI", "result": 0.74}
    ]},
    {"molecule": "CODA377: engineered receptor: S172D in SEQ ID NO: 33 (protein, synthetic sequence of chimeric LGIC) MRCSPGGVWLALAASLLHVSLQGEFQRKLYKELVKNYNPLERPVANDSQPLTVYFSLSLLQIMDVDEKNQVLTTNIWLQMSWTDHYLQWNVSEYPGVKTVRFPDGQIWKPDILLYNSADERFDATFHTNVLVNSSGHCQYLPPGIFKSSCPMDLKNFPMDVQTCKLKFGSWDYGGWSLDLQMQEADISGYIPNGEWDLVGIPGKRSERFYECCKEPYPDVTFTVTMRRRMGYYLIQMYIPSLLIVILSWISFWINMDAAPARVGLGITTVLTMTTQSSGSRASLPKVSYVKAIDIWMAVCLLFVFSALLEYAAVNFVSRQHKELLRFRRKRRHHKSPMLNLFQEDEAGEGRFNFSAYGMGPACLQAKDGISVKGANNSNTTNPPPAPSKSPEEMRKLFIQRAKKIDKISRIGFPMAFLIFNMFYWIIYKIVRREDVHNQ", "values": [
      {"measurement": "Normalized HA %", "result": 0.36},
      {"measurement": "Normalized HA MFI", "result": 0.61}
    ]},
    {"molecule": "CODA409: engineered receptor: Y210W in SEQ ID NO: 33 (protein, synthetic sequence of chimeric LGIC) MRCSPGGVWLALAASLLHVSLQGEFQRKLYKELVKNYNPLERPVANDSQPLTVYFSLSLLQIMDVDEKNQVLTTNIWLQMSWTDHYLQWNVSEYPGVKTVRFPDGQIWKPDILLYNSADERFDATFHTNVLVNSSGHCQYLPPGIFKSSCPMDLKNFPMDVQTCKLKFGSWSYGGWSLDLQMQEADISGYIPNGEWDLVGIPGKRSERFWECCKEPYPDVTFTVTMRRRMGYYLIQMYIPSLLIVILSWISFWINMDAAPARVGLGITTVLTMTTQSSGSRASLPKVSYVKAIDIWMAVCLLFVFSALLEYAAVNFVSRQHKELLRFRRKRRHHKSPMLNLFQEDEAGEGRFNFSAYGMGPACLQAKDGISVKGANNSNTTNPPPAPSKSPEEMRKLFIQRAKKIDKISRIGFPMAFLIFNMFYWIIYKIVRREDVHNQ", "values": [
      {"measurement": "Normalized HA %", "result": 0.96},
      {"measurement": "Normalized HA MFI", "result": 1.09}
    ]},
    {"molecule": "CODA534: engineered receptor: L131S, S172D in SEQ ID NO: 33 (protein, synthetic sequence of chimeric LGIC) MRCSPGGVWLALAASLLHVSLQGEFQRKLYKELVKNYNPLERPVANDSQPLTVYFSLSLLQIMDVDEKNQVLTTNIWLQMSWTDHYLQWNVSEYPGVKTVRFPDGQIWKPDILLYNSADERFDATFHTNVSVNSSGHCQYLPPGIFKSSCPMDLKNFPMDVQTCKLKFGSWDYGGWSLDLQMQEADISGYIPNGEWDLVGIPGKRSERFYECCKEPYPDVTFTVTMRRRMGYYLIQMYIPSLLIVILSWISFWINMDAAPARVGLGITTVLTMTTQSSGSRASLPKVSYVKAIDIWMAVCLLFVFSALLEYAAVNFVSRQHKELLRFRRKRRHHKSPMLNLFQEDEAGEGRFNFSAYGMGPACLQAKDGISVKGANNSNTTNPPPAPSKSPEEMRKLFIQRAKKIDKISRIGFPMAFLIFNMFYWIIYKIVRREDVHNQ", "values": [
      {"measurement": "Normalized HA %", "result": 0.47},
      {"measurement": "Normalized HA MFI", "result": 1.10}
    ]},
    {"molecule": "CODA535: engineered receptor: L131T, S172D in SEQ ID NO: 33 (protein, synthetic sequence of chimeric LGIC) MRCSPGGVWLALAASLLHVSLQGEFQRKLYKELVKNYNPLERPVANDSQPLTVYFSLSLLQIMDVDEKNQVLTTNIWLQMSWTDHYLQWNVSEYPGVKTVRFPDGQIWKPDILLYNSADERFDATFHTNVTVNSSGHCQYLPPGIFKSSCPMDLKNFPMDVQTCKLKFGSWDYGGWSLDLQMQEADISGYIPNGEWDLVGIPGKRSERFYECCKEPYPDVTFTVTMRRRMGYYLIQMYIPSLLIVILSWISFWINMDAAPARVGLGITTVLTMTTQSSGSRASLPKVSYVKAIDIWMAVCLLFVFSALLEYAAVNFVSRQHKELLRFRRKRRHHKSPMLNLFQEDEAGEGRFNFSAYGMGPACLQAKDGISVKGANNSNTTNPPPAPSKSPEEMRKLFIQRAKKIDKISRIGFPMAFLIFNMFYWIIYKIVRREDVHNQ", "values": [
      {"measurement": "Normalized HA %", "result": 0.33},
      {"measurement": "Normalized HA MFI", "result": 0.86}
    ]},
    {"molecule": "CODA536: engineered receptor: L131D, S172D in SEQ ID NO: 33 (protein, synthetic sequence of chimeric LGIC) MRCSPGGVWLALAASLLHVSLQGEFQRKLYKELVKNYNPLERPVANDSQPLTVYFSLSLLQIMDVDEKNQVLTTNIWLQMSWTDHYLQWNVSEYPGVKTVRFPDGQIWKPDILLYNSADERFDATFHTNVDVNSSGHCQYLPPGIFKSSCPMDLKNFPMDVQTCKLKFGSWDYGGWSLDLQMQEADISGYIPNGEWDLVGIPGKRSERFYECCKEPYPDVTFTVTMRRRMGYYLIQMYIPSLLIVILSWISFWINMDAAPARVGLGITTVLTMTTQSSGSRASLPKVSYVKAIDIWMAVCLLFVFSALLEYAAVNFVSRQHKELLRFRRKRRHHKSPMLNLFQEDEAGEGRFNFSAYGMGPACLQAKDGISVKGANNSNTTNPPPAPSKSPEEMRKLFIQRAKKIDKISRIGFPMAFLIFNMFYWIIYKIVRREDVHNQ", "values": [
      {"measurement": "Normalized HA %", "result": 0.40},
      {"measurement": "Normalized HA MFI", "result": 0.87}
    ]},
    {"molecule": "CODA805: engineered receptor: Y115D, S170T in SEQ ID NO: 33 (protein, synthetic sequence of chimeric LGIC) MRCSPGGVWLALAASLLHVSLQGEFQRKLYKELVKNYNPLERPVANDSQPLTVYFSLSLLQIMDVDEKNQVLTTNIWLQMSWTDHYLQWNVSEYPGVKTVRFPDGQIWKPDILLDNSADERFDATFHTNVLVNSSGHCQYLPPGIFKSSCPMDLKNFPMDVQTCKLKFGTWSYGGWSLDLQMQEADISGYIPNGEWDLVGIPGKRSERFYECCKEPYPDVTFTVTMRRRMGYYLIQMYIPSLLIVILSWISFWINMDAAPARVGLGITTVLTMTTQSSGSRASLPKVSYVKAIDIWMAVCLLFVFSALLEYAAVNFVSRQHKELLRFRRKRRHHKSPMLNLFQEDEAGEGRFNFSAYGMGPACLQAKDGISVKGANNSNTTNPPPAPSKSPEEMRKLFIQRAKKIDKISRIGFPMAFLIFNMFYWIIYKIVRREDVHNQ", "values": [
      {"measurement": "Normalized HA %", "result": 0.70},
      {"measurement": "Normalized HA MFI", "result": 0.94}
    ]},
    {"molecule": "CODA806: engineered receptor: Y115D, L131Q in SEQ ID NO: 33 (Chemogenic receptor-11) (protein, synthetic sequence of chimeric LGIC) MRCSPGGVWLALAASLLHVSLQGEFQRKLYKELVKNYNPLERPVANDSQPLTVYFSLSLLQIMDVDEKNQVLTTNIWLQMSWTDHYLQWNVSEYPGVKTVRFPDGQIWKPDILLDNSADERFDATFHTNVQVNSSGHCQYLPPGIFKSSCPMDLKNFPMDVQTCKLKFGSWSYGGWSLDLQMQEADISGYIPNGEWDLVGIPGKRSERFYECCKEPYPDVTFTVTMRRRMGYYLIQMYIPSLLIVILSWISFWINMDAAPARVGLGITTVLTMTTQSSGSRASLPKVSYVKAIDIWMAVCLLFVFSALLEYAAVNFVSRQHKELLRFRRKRRHHKSPMLNLFQEDEAGEGRFNFSAYGMGPACLQAKDGISVKGANNSNTTNPPPAPSKSPEEMRKLFIQRAKKIDKISRIGFPMAFLIFNMFYWIIYKIVRREDVHNQ", "values": [
      {"measurement": "Normalized HA %", "result": 0.36},
      {"measurement": "Normalized HA MFI", "result": 0.83}
    ]}
  ]
}
